Results taken from paper PMC12212870.
Results are given in words; binding and its absence hold for the method and conditions named. Some entries that bind do so weakly or less than the wild type.

Biological target: FimA, the primary building block of type 1 fimbriae of E. coli TOP10 (E. coli (endogenous in E. coli TOP10)) (UniProt P04128)
Assay: cryo-EM structure; type 1 fimbriae extracted from E. coli TOP10; FimA identified by mass spectrometry; 2.6 Å

- binding: binds
B1: FimA, the primary building block of type 1 fimbriae of E. coli TOP10 (protein, UniProt P04128 24-182)
chain: AATTVNGGTVHFKGEVVNAACAVDAGSVDQTVQLGQVRTASLAQEGATSSAVGFNIQLNDCDTNVASKAAVAFLGTAIDAGHTNVLALQSSAAGSATNVGVQILDRTGAALTLDGATFSSETTLNNGTNTIPFQARYFATGAATPGAANADATFKVQYQ
